These results are taken from PMC9306183.

By UniProt entry, the sequences of proteins in these tests, tags left out.
UniProt P01106: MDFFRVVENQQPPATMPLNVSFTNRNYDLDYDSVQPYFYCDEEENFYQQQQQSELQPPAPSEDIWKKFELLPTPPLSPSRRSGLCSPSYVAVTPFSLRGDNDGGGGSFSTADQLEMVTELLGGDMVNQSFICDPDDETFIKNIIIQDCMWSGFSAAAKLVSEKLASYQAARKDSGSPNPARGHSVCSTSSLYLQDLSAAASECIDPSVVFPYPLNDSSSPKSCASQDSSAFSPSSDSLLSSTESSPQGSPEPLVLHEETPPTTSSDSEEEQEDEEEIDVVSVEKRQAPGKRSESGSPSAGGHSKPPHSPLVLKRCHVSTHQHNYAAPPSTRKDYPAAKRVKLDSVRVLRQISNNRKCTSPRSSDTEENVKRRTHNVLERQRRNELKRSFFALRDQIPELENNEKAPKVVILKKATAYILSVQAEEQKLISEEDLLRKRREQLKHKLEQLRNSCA
UniProt P63208: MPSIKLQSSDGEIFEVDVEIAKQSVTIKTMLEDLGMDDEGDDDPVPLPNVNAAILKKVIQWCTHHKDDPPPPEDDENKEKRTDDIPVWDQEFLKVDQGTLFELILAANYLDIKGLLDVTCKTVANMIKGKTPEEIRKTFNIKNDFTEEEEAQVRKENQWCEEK

These are yes or no findings as the source states them, for the method shown. Binding seen in cells or lysates may run through a third protein. Some binding calls cover weakened binding; strength is not graded here. For some of these results: Where a sequence is shown, tags or fusion partners need not be part of it.

Test [1] has as its target T1, MAGI3 stably expressed in RKO cells (RKO-MAGI3) (UniProt Q5TCQ9).
T1 sequence: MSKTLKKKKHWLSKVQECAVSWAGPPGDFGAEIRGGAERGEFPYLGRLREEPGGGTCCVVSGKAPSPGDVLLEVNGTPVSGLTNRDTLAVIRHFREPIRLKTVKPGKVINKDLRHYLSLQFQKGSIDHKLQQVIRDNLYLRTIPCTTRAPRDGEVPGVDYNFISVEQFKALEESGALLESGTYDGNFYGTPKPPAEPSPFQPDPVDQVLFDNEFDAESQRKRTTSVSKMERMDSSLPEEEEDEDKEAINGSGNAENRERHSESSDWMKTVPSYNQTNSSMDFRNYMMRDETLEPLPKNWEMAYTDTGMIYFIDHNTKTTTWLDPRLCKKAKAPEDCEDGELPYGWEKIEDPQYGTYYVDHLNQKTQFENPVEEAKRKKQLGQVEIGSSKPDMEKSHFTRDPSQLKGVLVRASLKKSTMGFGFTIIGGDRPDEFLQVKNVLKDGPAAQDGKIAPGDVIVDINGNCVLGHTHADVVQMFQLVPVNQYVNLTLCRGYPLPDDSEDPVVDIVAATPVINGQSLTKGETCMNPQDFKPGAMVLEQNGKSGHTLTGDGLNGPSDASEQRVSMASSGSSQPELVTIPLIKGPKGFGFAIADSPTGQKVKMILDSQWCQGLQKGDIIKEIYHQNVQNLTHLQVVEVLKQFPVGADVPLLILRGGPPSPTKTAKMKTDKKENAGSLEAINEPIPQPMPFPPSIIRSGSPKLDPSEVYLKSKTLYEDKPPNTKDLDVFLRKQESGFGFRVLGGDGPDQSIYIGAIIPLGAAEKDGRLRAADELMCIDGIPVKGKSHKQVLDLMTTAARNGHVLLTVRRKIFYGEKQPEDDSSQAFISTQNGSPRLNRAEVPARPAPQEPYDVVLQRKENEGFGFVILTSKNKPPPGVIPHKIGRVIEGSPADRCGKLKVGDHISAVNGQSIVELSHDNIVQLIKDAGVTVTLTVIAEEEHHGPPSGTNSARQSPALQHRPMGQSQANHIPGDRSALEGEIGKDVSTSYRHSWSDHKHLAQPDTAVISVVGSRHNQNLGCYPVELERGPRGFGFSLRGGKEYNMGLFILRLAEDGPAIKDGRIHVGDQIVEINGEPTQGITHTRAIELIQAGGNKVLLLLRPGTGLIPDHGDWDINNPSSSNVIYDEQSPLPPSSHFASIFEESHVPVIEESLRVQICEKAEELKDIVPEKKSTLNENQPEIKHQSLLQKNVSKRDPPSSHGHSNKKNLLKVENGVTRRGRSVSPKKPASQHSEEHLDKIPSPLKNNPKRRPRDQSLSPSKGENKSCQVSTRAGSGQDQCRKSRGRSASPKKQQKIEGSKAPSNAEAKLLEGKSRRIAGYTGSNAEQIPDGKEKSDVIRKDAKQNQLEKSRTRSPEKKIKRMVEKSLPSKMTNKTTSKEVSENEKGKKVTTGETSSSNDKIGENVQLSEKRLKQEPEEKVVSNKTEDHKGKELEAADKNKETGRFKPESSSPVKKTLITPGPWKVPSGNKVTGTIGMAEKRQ
Nature of the test: co-IP; RKO-MAGI3 cell lysates immunoprecipitated with anti-MAGI3 antibodies; c-Myc, SKP1 and CUL1 detected by western blot.

The target of test [2] is c-Myc, endogenous (human (endogenous in CRC cells)) (UniProt P01106). The experiment in a line: co-IP; endogenous proteins; CRC cell lysates immunoprecipitated with anti-c-Myc antibodies, MAGI3 detected by western blot; lysis buffer 10 mM Hepes, 50 mM NaCl, 5 mM EDTA, 1 mM benzamidine, 0.5% Triton X-100; 3 h at 4 °C. A general note: Immunoblotting shows a protein as a band on a membrane.

Test [3] has as its target c-Myc, exogenous tagged protein in HEK293 cells (UniProt P01106). The experiment in a line: co-IP; reciprocal co-IP of exogenous tagged MAGI3 and c-Myc in HEK293 cells; western blot.

In the case of “SKP1, endogenous in RKO cells (from UniProt P63208 1-163)”, the binding result in test [1] is listed as “binds”.

As for “c-Myc, endogenous (from UniProt P01106 1-454)”, in test [1], the binding result is recorded as “binds”.

B1: membrane associated guanylate kinase, WW and PDZ domain containing 3 (MAGI3), endogenous (protein, UniProt Q5TCQ9 1-1481)
chain: MSKTLKKKKHWLSKVQECAVSWAGPPGDFGAEIRGGAERGEFPYLGRLREEPGGGTCCVVSGKAPSPGDVLLEVNGTPVSGLTNRDTLAVIRHFREPIRLKTVKPGKVINKDLRHYLSLQFQKGSIDHKLQQVIRDNLYLRTIPCTTRAPRDGEVPGVDYNFISVEQFKALEESGALLESGTYDGNFYGTPKPPAEPSPFQPDPVDQVLFDNEFDAESQRKRTTSVSKMERMDSSLPEEEEDEDKEAINGSGNAENRERHSESSDWMKTVPSYNQTNSSMDFRNYMMRDETLEPLPKNWEMAYTDTGMIYFIDHNTKTTTWLDPRLCKKAKAPEDCEDGELPYGWEKIEDPQYGTYYVDHLNQKTQFENPVEEAKRKKQLGQVEIGSSKPDMEKSHFTRDPSQLKGVLVRASLKKSTMGFGFTIIGGDRPDEFLQVKNVLKDGPAAQDGKIAPGDVIVDINGNCVLGHTHADVVQMFQLVPVNQYVNLTLCRGYPLPDDSEDPVVDIVAATPVINGQSLTKGETCMNPQDFKPGAMVLEQNGKSGHTLTGDGLNGPSDASEQRVSMASSGSSQPELVTIPLIKGPKGFGFAIADSPTGQKVKMILDSQWCQGLQKGDIIKEIYHQNVQNLTHLQVVEVLKQFPVGADVPLLILRGGPPSPTKTAKMKTDKKENAGSLEAINEPIPQPMPFPPSIIRSGSPKLDPSEVYLKSKTLYEDKPPNTKDLDVFLRKQESGFGFRVLGGDGPDQSIYIGAIIPLGAAEKDGRLRAADELMCIDGIPVKGKSHKQVLDLMTTAARNGHVLLTVRRKIFYGEKQPEDDSSQAFISTQNGSPRLNRAEVPARPAPQEPYDVVLQRKENEGFGFVILTSKNKPPPGVIPHKIGRVIEGSPADRCGKLKVGDHISAVNGQSIVELSHDNIVQLIKDAGVTVTLTVIAEEEHHGPPSGTNSARQSPALQHRPMGQSQANHIPGDRSALEGEIGKDVSTSYRHSWSDHKHLAQPDTAVISVVGSRHNQNLGCYPVELERGPRGFGFSLRGGKEYNMGLFILRLAEDGPAIKDGRIHVGDQIVEINGEPTQGITHTRAIELIQAGGNKVLLLLRPGTGLIPDHGDWDINNPSSSNVIYDEQSPLPPSSHFASIFEESHVPVIEESLRVQICEKAEELKDIVPEKKSTLNENQPEIKHQSLLQKNVSKRDPPSSHGHSNKKNLLKVENGVTRRGRSVSPKKPASQHSEEHLDKIPSPLKNNPKRRPRDQSLSPSKGENKSCQVSTRAGSGQDQCRKSRGRSASPKKQQKIEGSKAPSNAEAKLLEGKSRRIAGYTGSNAEQIPDGKEKSDVIRKDAKQNQLEKSRTRSPEKKIKRMVEKSLPSKMTNKTTSKEVSENEKGKKVTTGETSSSNDKIGENVQLSEKRLKQEPEEKVVSNKTEDHKGKELEAADKNKETGRFKPESSSPVKKTLITPGPWKVPSGNKVTGTIGMAEKRQ
As for B1, in test [2], the binding entry is “binds”.

B2: MAGI3, exogenous tagged protein in HEK293 cells (protein, UniProt Q5TCQ9 1-1481)
chain: MSKTLKKKKHWLSKVQECAVSWAGPPGDFGAEIRGGAERGEFPYLGRLREEPGGGTCCVVSGKAPSPGDVLLEVNGTPVSGLTNRDTLAVIRHFREPIRLKTVKPGKVINKDLRHYLSLQFQKGSIDHKLQQVIRDNLYLRTIPCTTRAPRDGEVPGVDYNFISVEQFKALEESGALLESGTYDGNFYGTPKPPAEPSPFQPDPVDQVLFDNEFDAESQRKRTTSVSKMERMDSSLPEEEEDEDKEAINGSGNAENRERHSESSDWMKTVPSYNQTNSSMDFRNYMMRDETLEPLPKNWEMAYTDTGMIYFIDHNTKTTTWLDPRLCKKAKAPEDCEDGELPYGWEKIEDPQYGTYYVDHLNQKTQFENPVEEAKRKKQLGQVEIGSSKPDMEKSHFTRDPSQLKGVLVRASLKKSTMGFGFTIIGGDRPDEFLQVKNVLKDGPAAQDGKIAPGDVIVDINGNCVLGHTHADVVQMFQLVPVNQYVNLTLCRGYPLPDDSEDPVVDIVAATPVINGQSLTKGETCMNPQDFKPGAMVLEQNGKSGHTLTGDGLNGPSDASEQRVSMASSGSSQPELVTIPLIKGPKGFGFAIADSPTGQKVKMILDSQWCQGLQKGDIIKEIYHQNVQNLTHLQVVEVLKQFPVGADVPLLILRGGPPSPTKTAKMKTDKKENAGSLEAINEPIPQPMPFPPSIIRSGSPKLDPSEVYLKSKTLYEDKPPNTKDLDVFLRKQESGFGFRVLGGDGPDQSIYIGAIIPLGAAEKDGRLRAADELMCIDGIPVKGKSHKQVLDLMTTAARNGHVLLTVRRKIFYGEKQPEDDSSQAFISTQNGSPRLNRAEVPARPAPQEPYDVVLQRKENEGFGFVILTSKNKPPPGVIPHKIGRVIEGSPADRCGKLKVGDHISAVNGQSIVELSHDNIVQLIKDAGVTVTLTVIAEEEHHGPPSGTNSARQSPALQHRPMGQSQANHIPGDRSALEGEIGKDVSTSYRHSWSDHKHLAQPDTAVISVVGSRHNQNLGCYPVELERGPRGFGFSLRGGKEYNMGLFILRLAEDGPAIKDGRIHVGDQIVEINGEPTQGITHTRAIELIQAGGNKVLLLLRPGTGLIPDHGDWDINNPSSSNVIYDEQSPLPPSSHFASIFEESHVPVIEESLRVQICEKAEELKDIVPEKKSTLNENQPEIKHQSLLQKNVSKRDPPSSHGHSNKKNLLKVENGVTRRGRSVSPKKPASQHSEEHLDKIPSPLKNNPKRRPRDQSLSPSKGENKSCQVSTRAGSGQDQCRKSRGRSASPKKQQKIEGSKAPSNAEAKLLEGKSRRIAGYTGSNAEQIPDGKEKSDVIRKDAKQNQLEKSRTRSPEKKIKRMVEKSLPSKMTNKTTSKEVSENEKGKKVTTGETSSSNDKIGENVQLSEKRLKQEPEEKVVSNKTEDHKGKELEAADKNKETGRFKPESSSPVKKTLITPGPWKVPSGNKVTGTIGMAEKRQ
On to B2, for which the binding result in test [3] is given as “binds”.
